Measurements from US10669246B2, “Benzothiazol compounds and methods using the same for treating neurodegenerative disorders” (1ST Biotherapeutics, Inc., priority 2017, dated 2020).
At least one structure is not confirmed: it was looked up by name or label, or the drawing left a doubt.

System: PFF-induced neuronal toxicity
Assay: PFF-induced neuronal toxicity
Format: cell-based
Details: dose: 0.5, 1, 5, 10, 100 nM

`Cc1c(F)cncc1-c1ccc2nc(NC(=O)[C@@H]3C[C@@H]3F)sc2c1` [Example 8, (1S,2S)-2-fluoro-N-(6-(5-fluoro-4-methylpyridin-3-yl)benzo[d]thiazol-2-yl)cyclopropane-1-carboxamide] was tested, and the PFF-induced neuronal toxicity was “inhibited PFF-induced neuronal toxicity in a dose dependent manner”.
